The values below come from article doi:10.1101/2025.10.30.684516.

Sequences of proteins named here, by UniProt entry; tags and fusion partners are left off.
UniProt P08670: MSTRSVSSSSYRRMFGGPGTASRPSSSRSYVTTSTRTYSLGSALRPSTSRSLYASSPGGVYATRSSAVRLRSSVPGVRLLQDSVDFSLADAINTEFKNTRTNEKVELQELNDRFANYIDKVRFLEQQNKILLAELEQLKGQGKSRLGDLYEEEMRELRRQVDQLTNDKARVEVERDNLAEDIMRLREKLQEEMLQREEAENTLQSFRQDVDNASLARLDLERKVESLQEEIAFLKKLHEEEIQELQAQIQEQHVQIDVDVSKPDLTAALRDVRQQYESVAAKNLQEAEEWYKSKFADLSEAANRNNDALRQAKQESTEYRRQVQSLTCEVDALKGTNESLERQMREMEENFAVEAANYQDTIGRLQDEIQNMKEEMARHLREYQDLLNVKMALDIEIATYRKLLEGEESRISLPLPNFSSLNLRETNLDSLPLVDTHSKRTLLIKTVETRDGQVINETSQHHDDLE

No constants are given. Whether binding was seen depends on the method and setting. Binding seen in cells or lysates may run through a third protein. A yes stands for co-enrichment or nearness to the bait. Other partners may have been found.

The labels stand for the following.
B1: RAB23 (protein, UniProt Q9ULC3 1-237)
chain: MLEEDMEVAIKMVVVGNGAVGKSSMIQRYCKGIFTKDYKKTIGVDFLERQIQVNDEDVRLMLWDTAGQEEFDAITKAYYRGAQACVLVFSTTDRESFEAVSSWREKVVAEVGDIPTVLVQNKIDLLDDSCIKNEEAEALAKRLKLRFYRTSVKEDLNVNEVFKYLAEKYLQKLKQQIAEDPELTHSSSNKIGVFNTSGGSHSGQNSGTLNGGDVINLRPNKQRTKKNRNPFSSCSIP
B2: RAB32 (protein, UniProt Q13637 1-225)
chain: MAGGGAGDPGLGAAAAPAPETREHLFKVLVIGELGVGKTSIIKRYVHQLFSQHYRATIGVDFALKVLNWDSRTLVRLQLWDIAGQERFGNMTRVYYKEAVGAFVVFDISRSSTFEAVLKWKSDLDSKVHLPNGSPIPAVLLANKCDQNKDSSQSPSQVDQFCKEHGFAGWFETSAKDNINIEEAARFLVEKILVNHQSFPNEENDVDKIKLDQETLRAENKSQCC
B3: TXNL1 (protein, UniProt O43396 1-289)
chain: MVGVKPVGSDPDFQPELSGAGSRLAVVKFTMRGCGPCLRIAPAFSSMSNKYPQAVFLEVDVHQCQGTAATNNISATPTFLFFRNKVRIDQYQGADAVGLEEKIKQHLENDPGSNEDTDIPKGYMDLMPFINKAGCECLNESDEHGFDNCLRKDTTFLESDCDEQLLITVAFNQPVKLYSMKFQGPDNGQGPKYVKIFINLPRSMDFEEAERSEPTQALELTEDDIKEDGIVPLRYVKFQNVNSVTIFVQSNQGEEETTRISYFTFIGTPVQATNMNDFKRVVGKKGESH
B4: EXOG (protein, UniProt Q9Y2C4 42-368)
chain: QGAEGALTGKQPDGSAEKAVLEQFGFPLTGTEARCYTNHALSYDQAKRVPRWVLEHISKSKIMGDADRKHCKFKPDPNIPPTFSAFNEDYVGSGWSRGHMAPAGNNKFSSKAMAETFYLSNIVPQDFDNNSGYWNRIEMYCRELTERFEDVWVVSGPLTLPQTRGDGKKIVSYQVIGEDNVAVPSHLYKVILARRSSVSTEPLALGAFVVPNEAIGFQPQLTEFQVSLQDLEKLSGLVFFPHLDRTSDIRNICSVDTCKLLDFQEFTLYLSTRKIEGARSVLRLEKIMENLKNAEIEPDDYFMSRYEKKLEELKAKEQSGTQIRKPS
B5: MYO1E (protein, UniProt Q12965 1-1108)
chain: MGSKGVYQYHWQSHNVKHSGVDDMVLLSKITENSIVENLKKRYMDDYIFTYIGSVLISVNPFKQMPYFGEKEIEMYQGAAQYENPPHIYALADNMYRNMIIDRENQCVIISGESGAGKTVAAKYIMSYISRVSGGGTKVQHVKDIILQSNPLLEAFGNAKTVRNNNSSRFGKYFEIQFSPGGEPDGGKISNFLLEKSRVVMRNPGERSFHIFYQLIEGASAEQKHSLGITSMDYYYYLSLSGSYKVDDIDDRREFQETLHAMNVIGIFAEEQTLVLQIVAGILHLGNISFKEVGNYAAVESEEFLAFPAYLLGINQDRLKEKLTSRQMDSKWGGKSESIHVTLNVEQACYTRDALAKALHARVFDFLVDSINKAMEKDHEEYNIGVLDIYGFEIFQKNGFEQFCINFVNEKLQQIFIELTLKAEQEEYVQEGIRWTPIEYFNNKIVCDLIENKVNPPGIMSILDDVCATMHAVGEGADQTLLQKLQMQIGSHEHFNSWNQGFIIHHYAGKVSYDMDGFCERNRDVLFMDLIELMQSSELPFIKSLFPENLQADKKGRPTTAGSKIKKQANDLVSTLMKCTPHYIRCIKPNETKKPRDWEESRVKHQVEYLGLKENIRVRRAGYAYRRIFQKFLQRYAILTKATWPSWQGEEKQGVLHLLQSVNMDSDQFQLGRSKVFIKAPESLFLLEEMRERKYDGYARVIQKSWRKFVARKKYVQMREEASDLLLNKKERRRNSINRNFIGDYIGMEEHPELQQFVGKREKIDFADTVTKYDRRFKGVKRDLLLTPKCLYLIGREKVKQGPDKGLVKEVLKRKIEIERILSVSLSTMQDDIFILHEQEYDSLLESVFKTEFLSLLAKRYEEKTQKQLPLKFSNTLELKLKKENWGPWSAGGSRQVQFHQGFGDLAVLKPSNKVLQVSIGPGLPKNSRPTRRNTTQNTGYSSGTQNANYPVRAAPPPPGYHQNGVIRNQYVPYPHAPGSQRSNQKSLYTSMARPPLPRQQSTSSDRVSQTPESLDFLKVPDQGAAGVRRQTTSRPPPAGGRPKPQPKPKPQVPQCKALYAYDAQDTDELSFNANDIIDIIKEDPSGWWTGRLRGKQGLFPNNYVTKI
B6: SNW1 (protein, UniProt Q13573 1-536)
chain: MALTSFLPAPTQLSQDQLEAEEKARSQRSRQTSLVSSRREPPPYGYRKGWIPRLLEDFGDGGAFPEIHVAQYPLDMGRKKKMSNALAIQVDSEGKIKYDAIARQGQSKDKVIYSKYTDLVPKEVMNADDPDLQRPDEEAIKEITEKTRVALEKSVSQKVAAAMPVRAADKLAPAQYIRYTPSQQGVAFNSGAKQRVIRMVEMQKDPMEPPRFKINKKIPRGPPSPPAPVMHSPSRKMTVKEQQEWKIPPCISNWKNAKGYTIPLDKRLAADGRGLQTVHINENFAKLAEALYIADRKAREAVEMRAQVERKMAQKEKEKHEEKLREMAQKARERRAGIKTHVEKEDGEARERDEIRHDRRKERQHDRNLSRAAPDKRSKLQRNENRDISEVIALGVPNPRTSNEVQYDQRLFNQSKGMDSGFAGGEDEIYNVYDQAWRGGKDMAQSIYRPSKNLDKDMYGDDLEARIKTNRFVPDKEFSGSDRRQRGREGPVQFEEDPFGLDKFLEEAKQHGGSKRPSDSSRPKEHEHEGKKRRKE
B7: AKR1C3 (protein, UniProt P42330 1-323)
chain: MDSKHQCVKLNDGHFMPVLGFGTYAPPEVPRSKALEVTKLAIEAGFRHIDSAHLYNNEEQVGLAIRSKIADGSVKREDIFYTSKLWSTFHRPELVRPALENSLKKAQLDYVDLYLIHSPMSLKPGEELSPTDENGKVIFDIVDLCTTWEAMEKCKDAGLAKSIGVSNFNRRQLEMILNKPGLKYKPVCNQVECHPYFNRSKLLDFCKSKDIVLVAYSALGSQRDKRWVDPNSPVLLEDPVLCALAKKHKRTPALIALRYQLQRGVVVLAKSYNEQRIRQNVQVFEFQLTAEDMKAIDGLDRNLHYFNSDSFASHPNYPYSDEY
B8: HCCS (protein, UniProt P53701 1-268)
chain: MGLSPSAPAVAVQASNASASPPSGCPMHEGKMKGCPVNTEPSGPTCEKKTYSVPAHQERAYEYVECPIRGTAAENKENLDPSNLMPPPNQTPAPDQPFALSTVREESSIPRADSEKKWVYPSEQMFWNAMLKKGWKWKDEDISQKDMYNIIRIHNQNNEQAWKEILKWEALHAAECPCGPSLIRFGGKAKEYSPRARIRSWMGYELPFDRHDWIINRCGTEVRYVIDYYDGGEVNKDYQFTILDVRPALDSLSAVWDRMKVAWWRWTS
B9: PRPS2 (protein, UniProt P11908 1-318)
chain: MPNIVLFSGSSHQDLSQRVADRLGLELGKVVTKKFSNQETSVEIGESVRGEDVYIIQSGCGEINDNLMELLIMINACKIASSSRVTAVIPCFPYARQDKKDKSRAPISAKLVANMLSVAGADHIITMDLHASQIQGFFDIPVDNLYAEPAVLQWIRENIAEWKNCIIVSPDAGGAKRVTSIADRLNVEFALIHKERKKANEVDRMVLVGDVKDRVAILVDDMADTCGTICHAADKLLSAGATKVYAILTHGIFSGPAISRINNAAFEAVVVTNTIPQEDKMKHCTKIQVIDISMILAEAIRRTHNGESVSYLFSHVPL
B10: ATXN2L (protein, UniProt Q8WWM7 1-1075)
chain: MLKPQPLQQPSQPQQPPPTQQAVARRPPGGTSPPNGGLPGPLATSAAPPGPPAAASPCLGPVAAAGSGLRRGAEGILAPQPPPPQQHQERPGAAAIGSARGQSTGKGPPQSPVFEGVYNNSRMLHFLTAVVGSTCDVKVKNGTTYEGIFKTLSSKFELAVDAVHRKASEPAGGPRREDIVDTMVFKPSDVMLVHFRNVDFNYATKDKFTDSAIAMNSKVNGEHKEKVLQRWEGGDSNSDDYDLESDMSNGWDPNEMFKFNEENYGVKTTYDSSLSSYTVPLEKDNSEEFRQRELRAAQLAREIESSPQYRLRIAMENDDGRTEEEKHSAVQRQGSGRESPSLASREGKYIPLPQRVREGPRGGVRCSSSRGGRPGLSSLPPRGPHHLDNSSPGPGSEARGINGGPSRMSPKAQRPLRGAKTLSSPSNRPSGETSVPPPPAVGRMYPPRSPKSAAPAPISASCPEPPIGSAVPTSSASIPVTSSVSDPGVGSISPASPKISLAPTDVKELSTKEPGRTLEPQELARIAGKVPGLQNEQKRFQLEELRKFGAQFKLQPSSSPENSLDPFPPRILKEEPKGKEKEVDGLLTSEPMGSPVSSKTESVSDKEDKPPLAPSGGTEGPEQPPPPCPSQTGSPPVGLIKGEDKDEGPVAEQVKKSTLNPNAKEFNPTKPLLSVNKSTSTPTSPGPRTHSTPSIPVLTAGQSGLYSPQYISYIPQIHMGPAVQAPQMYPYPVSNSVPGQQGKYRGAKGSLPPQRSDQHQPASAPPMMQAAAAAGPPLVAATPYSSYIPYNPQQFPGQPAMMQPMAHYPSQPVFAPMLQSNPRMLTSGSHPQAIVSSSTPQYPSAEQPTPQALYATVHQSYPHHATQLHAHQPQPATTPTGSQPQSQHAAPSPVQHQAGQAPHLGSGQPQQNLYHPGALTGTPPSLPPGPSAQSPQSSFPQPAAVYAIHHQQLPHGFTNMAHVTQAHVQTGITAAPPPHPGAPHPPQVMLLHPPQSHGGPPQGAVPQSGVPALSASTPSPYPYIGHPQGEQPGQAPGFPGGADDRIREFSLAGGIWHGRAEGLQVGQDARVLGGE
B11: AK1 (protein, UniProt P00568 1-194)
chain: MEEKLKKTKIIFVVGGPGSGKGTQCEKIVQKYGYTHLSTGDLLRSEVSSGSARGKKLSEIMEKGQLVPLETVLDMLRDAMVAKVNTSKGFLIDGYPREVQQGEEFERRIGQPTLLLYVDAGPETMTQRLLKRGETSGRVDDNEETIKKRLETYYKATEPVIAFYEKRGIVRKVNAEGSVDSVFSQVCTHLDALK
B12: EDIL3 (protein, UniProt O43854 24-480)
chain: DICDPNPCENGGICLPGLADGSFSCECPDGFTDPNCSSVVEVASDEEEPTSAGPCTPNPCHNGGTCEISEAYRGDTFIGYVCKCPRGFNGIHCQHNINECEVEPCKNGGICTDLVANYSCECPGEFMGRNCQYKCSGPLGIEGGIISNQQITASSTHRALFGLQKWYPYYARLNKKGLINAWTAAENDRWPWIQINLQRKMRVTGVITQGAKRIGSPEYIKSYKIAYSNDGKTWAMYKVKGTNEDMVFRGNIDNNTPYANSFTPPIKAQYVRLYPQVCRRHCTLRMELLGCELSGCSEPLGMKSGHIQDYQITASSIFRTLNMDMFTWEPRKARLDKQGKVNAWTSGHNDQSQWLQVDLLVPTKVTGIITQGAKDFGHVQFVGSYKLAYSNDGEHWTVYQDEKQRKDKVFQGNFDNDTHRKNVIDPPIYARHIRILPWSWYGRITLRSELLGCTEEE
B13: RBM3 (protein, UniProt P98179 1-157)
chain: MSSEEGKLFVGGLNFNTDEQALEDHFSSFGPISEVVVVKDRETQRSRGFGFITFTNPEHASVAMRAMNGESLDGRQIRVDHAGKSARGTRGGGFGAHGRGRSYSRGGGDQGYGSGRYYDSRPGGYGYGYGRSRDYNGRNQGGYDRYSGGNYRDNYDN

This assay deals with VIM-APEX2-GFP (UniProt P08670). The assay is described as follows: proximity labelling.
As for B1, the binding entry is “binds”.

B2: the binding entry is listed as “binds”.

As to B3, the binding entry is listed as “binds”.

In the case of B4, the binding result is on record as “binds”.

With B5, the binding result is on record as “binds”.

Consider B6, for which the binding entry is “binds”.

In the case of B7, the binding result is “binds”.

On to B8, for which the binding result was “binds”.

For the molecule B9, the binding result is on record as “binds”.

As for B10, the binding entry was “binds”.

For the molecule B11, the binding entry is recorded as “binds”.

With B12, the binding entry is “binds”.

Consider B13, for which the binding entry is given as “binds”.
